Screen size: about 300,000 compounds; about 5,400 (1.8%) were called active. Inconclusive results, whose numbers are uncertain, are shown with a selection of clear calls. The call rests on the fitted dose curve; tested in HEK293 cells. A potency beside an inconclusive call is a rough fit, not a confirmed value.
Assay: qHTS for inhibitors of binding or entry into cells for Marburg Virus
Conditions: Marburg virus pseudotyped entry inhibition, cell reporter; series mostly up to 37.8 µM
Potency means the concentration at half of the fitted maximal effect.

Structure (SMILES) | Potency
CCOC(=O)c1c(C)[nH]c(C(=O)OCC(=O)N2CCCC2=O)c1C | inconclusive: 22.4 µM [activator, single point]
O=C(NCCN1CCCC1)c1cccc(Cl)c1 | inactive
C/C(=N\NC(=O)COc1ccccc1[N+](=O)[O-])c1cccs1 | inactive
Cc1ccc([C@H]2C[C@@H](O)[C@H](n3cc(-c4ccc(F)cc4)nn3)CN2C(=O)C2CCCCC2)cc1 | inconclusive: 0.995 µM [inhibitor, full curve, poor fit]
Brc1cccc(-c2nnc(-c3ccccc3)o2)c1 | inconclusive: 7.08 µM [inhibitor, partial curve, poor fit]
CN(C)c1nnnn1-c1cccc(Oc2ncc(C(F)(F)F)cc2Cl)c1 | inconclusive: 12.6 µM [inhibitor, single point]
O=C(CNC(=O)c1ccc(S(=O)(=O)N2CCCC2)cc1)N/N=C/c1ccc(Cl)cc1Cl | inconclusive: 14.1 µM [inhibitor, partial curve, poor fit]
O=C(Nc1cc(-c2ccccc2)[nH]n1)c1ccccc1F | inconclusive: 12.6 µM [inhibitor, single point]
Clc1cccc(-c2cc3nc4c(c(N5CCN(c6cnccn6)CC5)n3n2)CCCC4)c1 | inactive
CC(CCc1ccccc1)NC(=O)C1CCN(S(=O)(=O)N2CCOCC2)CC1 (stereo not drawn) | inconclusive: 7.08 µM [activator, partial curve]
Cc1cccc(NC(=O)c2sc3nc(N)c(C#N)cc3c2N)c1 | inconclusive: 0.631 µM [activator, partial curve, poor fit]
Cc1cc(C)nc(N2CCC(C(=O)NCCc3ccc(F)cc3)CC2)n1 | inconclusive: 2.24 µM [inhibitor, single point]
CC1=CC=CN2C[C@H](O)CN=C12 | inactive
CCOc1ccc(S(=O)(=O)N2CCN(c3ccc(OC)cc3)CC2)c2cccnc12 | inconclusive: 2.24 µM [inhibitor, partial curve, poor fit]
Oc1nc(Nc2ccc(Cl)cc2Cl)sc1/C=C1\C=Nc2ccccc21 | inconclusive: 22.4 µM [activator, single point]
CCOC(=O)Cc1c(C)nc2cc(-c3ccc(Cl)cc3)[nH]n2c1=O | inconclusive: 2.31 µM [activator, partial curve]
COc1ccc(C2=NN(C(=O)CSc3nnc(C)n3C)C(c3ccco3)C2)cc1 (stereo not drawn) | inconclusive: 4.61 µM [inhibitor, single point]
Cc1ccc(S(=O)(=O)Cn2nnnc2C(C(C)C)N2CCc3ccccc3C2)cc1 (stereo not drawn) | inconclusive: 29.1 µM [inhibitor, single point]

Individual results from the entries so far:
O=C(Nc1cc(-c2ccccc2)[nH]n1)c1ccccc1F – Potency: inconclusive: 12.6 µM [inhibitor, single point]
Clc1cccc(-c2cc3nc4c(c(N5CCN(c6cnccn6)CC5)n3n2)CCCC4)c1 – Potency: inactive
